By UniProt entry, the sequences of proteins in these tests, tags left out. Where a name states a change or a piece, a line headed by the entry shows the natural chain unless it says otherwise.
UniProt Q99607: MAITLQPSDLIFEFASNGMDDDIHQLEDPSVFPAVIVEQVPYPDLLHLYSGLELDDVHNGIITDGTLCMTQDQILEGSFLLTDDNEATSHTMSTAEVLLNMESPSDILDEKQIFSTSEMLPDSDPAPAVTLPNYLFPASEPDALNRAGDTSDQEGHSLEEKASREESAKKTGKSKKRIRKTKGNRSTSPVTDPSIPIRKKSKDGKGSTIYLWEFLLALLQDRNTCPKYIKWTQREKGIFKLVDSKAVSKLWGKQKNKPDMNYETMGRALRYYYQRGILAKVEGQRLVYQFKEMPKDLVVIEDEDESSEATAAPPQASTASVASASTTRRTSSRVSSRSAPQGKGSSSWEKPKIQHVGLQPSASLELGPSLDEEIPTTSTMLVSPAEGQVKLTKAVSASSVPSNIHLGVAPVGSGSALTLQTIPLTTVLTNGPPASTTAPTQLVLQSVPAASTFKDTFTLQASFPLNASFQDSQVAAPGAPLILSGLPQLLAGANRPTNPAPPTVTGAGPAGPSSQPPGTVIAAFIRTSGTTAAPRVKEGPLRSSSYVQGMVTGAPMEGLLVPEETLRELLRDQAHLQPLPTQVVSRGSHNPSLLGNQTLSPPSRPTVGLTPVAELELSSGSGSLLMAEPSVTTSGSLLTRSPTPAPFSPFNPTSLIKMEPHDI

In PMC4338625:

Key:
Test in all cases: EMSA
[1] = biological target: ELF4 (human) (UniProt Q99607); settings: EMSA conditions not printed (as previously described, ref 5); protein stock in 10 mM Tris pH 7.9, 0.5 mM EDTA, 200 mM KCl, 1 mM DTT, 10% glycerol; recombinant protein; residues 1-663; protein details: N-term 6xHis
[2] = biological target: T1, ERG (human) (UniProt P11308); settings: EMSA conditions not printed (as previously described, ref 5); protein stock in 10 mM Tris pH 7.9, 0.5 mM EDTA, 200 mM KCl, 1 mM DTT, 10% glycerol; recombinant protein; residues 1-479; protein details: N-term 6xHis
T1 sequence (looked up): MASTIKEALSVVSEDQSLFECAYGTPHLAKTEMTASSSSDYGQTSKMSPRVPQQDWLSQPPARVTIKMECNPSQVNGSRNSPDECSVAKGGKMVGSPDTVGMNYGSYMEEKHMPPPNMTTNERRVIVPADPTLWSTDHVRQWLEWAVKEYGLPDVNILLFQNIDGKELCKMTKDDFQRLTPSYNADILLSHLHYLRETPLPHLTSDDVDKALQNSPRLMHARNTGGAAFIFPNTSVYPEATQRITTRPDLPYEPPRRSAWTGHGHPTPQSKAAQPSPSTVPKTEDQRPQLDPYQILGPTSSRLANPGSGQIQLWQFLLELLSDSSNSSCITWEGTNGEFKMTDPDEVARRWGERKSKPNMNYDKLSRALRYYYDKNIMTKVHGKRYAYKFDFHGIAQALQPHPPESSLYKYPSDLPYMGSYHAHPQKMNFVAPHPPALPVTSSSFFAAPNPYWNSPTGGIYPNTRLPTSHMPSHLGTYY

[3] = biological target: T2, ETV4 (human) (UniProt P43268); settings: EMSA conditions not printed (as previously described, ref 5); protein stock in 10 mM Tris pH 7.9, 0.5 mM EDTA, 200 mM KCl, 1 mM DTT, 10% glycerol; recombinant protein; residues 1-484; protein details: N-term 6xHis
T2 sequence (looked up): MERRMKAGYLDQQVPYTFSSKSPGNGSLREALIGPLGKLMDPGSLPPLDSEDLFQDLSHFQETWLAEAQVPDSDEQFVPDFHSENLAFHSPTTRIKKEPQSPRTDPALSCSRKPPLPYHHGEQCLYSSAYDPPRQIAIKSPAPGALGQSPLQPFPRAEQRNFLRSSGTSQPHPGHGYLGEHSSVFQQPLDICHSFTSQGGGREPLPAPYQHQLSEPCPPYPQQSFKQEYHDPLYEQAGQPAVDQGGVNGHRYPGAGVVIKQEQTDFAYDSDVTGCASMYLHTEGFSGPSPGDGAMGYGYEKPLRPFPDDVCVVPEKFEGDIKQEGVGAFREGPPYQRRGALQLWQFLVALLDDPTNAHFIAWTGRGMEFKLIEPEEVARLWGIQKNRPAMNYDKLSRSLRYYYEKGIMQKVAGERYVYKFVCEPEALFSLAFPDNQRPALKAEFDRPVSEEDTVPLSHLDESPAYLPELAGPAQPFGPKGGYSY

[4] = biological target: T3, FLI1 (human) (UniProt Q01543); settings: EMSA conditions not printed (as previously described, ref 5); protein stock in 10 mM Tris pH 7.9, 0.5 mM EDTA, 200 mM KCl, 1 mM DTT, 10% glycerol; recombinant protein; residues 1-452; protein details: N-term 6xHis
T3 sequence (looked up): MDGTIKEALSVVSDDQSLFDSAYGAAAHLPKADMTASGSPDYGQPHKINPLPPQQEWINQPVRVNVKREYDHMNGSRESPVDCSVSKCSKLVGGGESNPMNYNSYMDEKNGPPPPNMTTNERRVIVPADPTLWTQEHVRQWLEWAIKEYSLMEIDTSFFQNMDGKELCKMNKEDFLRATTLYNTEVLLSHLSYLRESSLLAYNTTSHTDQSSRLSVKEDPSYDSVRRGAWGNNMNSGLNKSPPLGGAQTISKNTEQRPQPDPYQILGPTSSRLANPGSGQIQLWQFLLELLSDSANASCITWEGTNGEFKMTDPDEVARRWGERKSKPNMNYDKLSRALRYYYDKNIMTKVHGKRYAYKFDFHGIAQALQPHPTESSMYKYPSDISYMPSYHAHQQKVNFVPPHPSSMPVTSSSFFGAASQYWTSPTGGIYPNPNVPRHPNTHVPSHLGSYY

[5] = biological target: T4, ETV3 (human) (UniProt P41162); settings: EMSA conditions not printed (as previously described, ref 5); protein stock in 10 mM Tris pH 7.9, 0.5 mM EDTA, 200 mM KCl, 1 mM DTT, 10% glycerol; recombinant protein; residues 1-512; protein details: N-term 6xHis
T4 sequence (looked up): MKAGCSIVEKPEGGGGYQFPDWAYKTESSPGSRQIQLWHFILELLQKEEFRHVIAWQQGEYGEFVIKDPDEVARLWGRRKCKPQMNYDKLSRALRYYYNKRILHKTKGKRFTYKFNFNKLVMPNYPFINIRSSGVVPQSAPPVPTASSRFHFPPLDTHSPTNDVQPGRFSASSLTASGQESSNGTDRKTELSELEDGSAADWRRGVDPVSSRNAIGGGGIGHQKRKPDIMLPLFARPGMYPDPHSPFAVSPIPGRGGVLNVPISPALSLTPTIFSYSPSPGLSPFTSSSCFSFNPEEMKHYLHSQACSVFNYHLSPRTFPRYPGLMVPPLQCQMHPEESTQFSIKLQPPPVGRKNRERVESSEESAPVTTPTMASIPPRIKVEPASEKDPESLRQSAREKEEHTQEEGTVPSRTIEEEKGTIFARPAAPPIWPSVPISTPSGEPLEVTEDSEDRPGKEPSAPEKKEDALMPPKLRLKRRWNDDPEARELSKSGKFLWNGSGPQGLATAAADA

[6] = biological target: T5, ETV2 (human) (UniProt O00321); settings: EMSA conditions not printed (as previously described, ref 5); protein stock in 10 mM Tris pH 7.9, 0.5 mM EDTA, 200 mM KCl, 1 mM DTT, 10% glycerol; recombinant protein; residues 1-342; protein details: N-term 6xHis
T5 sequence (looked up): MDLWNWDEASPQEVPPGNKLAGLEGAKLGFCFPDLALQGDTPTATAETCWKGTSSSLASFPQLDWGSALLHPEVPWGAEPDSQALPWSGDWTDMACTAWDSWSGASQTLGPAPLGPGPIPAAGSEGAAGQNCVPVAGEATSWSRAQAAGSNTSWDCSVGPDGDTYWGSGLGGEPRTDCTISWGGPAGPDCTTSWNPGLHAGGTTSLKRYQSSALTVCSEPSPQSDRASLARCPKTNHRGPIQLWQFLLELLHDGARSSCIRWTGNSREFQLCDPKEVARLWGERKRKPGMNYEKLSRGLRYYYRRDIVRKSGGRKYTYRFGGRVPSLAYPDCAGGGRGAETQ

Measured: binding result

GCCACGGCCCAGGAAGTGACTCACCCACCCTGATG (double strand) [ETS consensus EMSA probe]
binds: all assays above

Construct, isoform or probe ends are uncertain for at least one entry. At least one verdict was read from the data and is not stated in words by the source. For part of these data: Tags and fusion partners may be left off the protein sequences shown.
